Results deposited as PubChem BioAssay AID1259425 (University of Nebraska Medical Center, 2018)
Screen: 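Find knockdowns that reproduce the gene expression pattern seen when KSR1 is lost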 (primary screen). Cells: HCT116 human colon cancer cells. Reagent: siRNA pool against human genes, 50 nM siRNA. Measurement: 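After 50 nM siRNA pool, branched-DNA assay measures six marker transcripts per well, minus blank, normalised to the geometric mean of two housekeeping transcripts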. Scale: BNIP3L mRNA: higher = more BNIP3L transcript after knockdown; NDRG1 mRNA: higher = more NDRG1 transcript after knockdown.
Here is an unselected part of about 14,000 deposited reagents. Not all columns of the deposit are shown. Not stated in the record: the time to read-out.

TRIM66 (GeneID 9866)
- BNIP3L mRNA, set 1: 0.251
- NDRG1 mRNA, set 1: 0.759

MAD2L1BP (GeneID 9587)
- BNIP3L mRNA, set 1: 0.117
- NDRG1 mRNA, set 1: 0.167

GPR78 (GeneID 27201)
- BNIP3L mRNA, set 1: 0.264
- NDRG1 mRNA, set 1: 0.727

IGLJ3 (GeneID 28831)
- BNIP3L mRNA, set 1: 0.136
- NDRG1 mRNA, set 1: 0.192

LYRM1 (GeneID 57149)
- BNIP3L mRNA, set 1: 0.112
- NDRG1 mRNA, set 1: 0.216

SLC25A19 (GeneID 60386)
- BNIP3L mRNA, set 1: 0.205
- NDRG1 mRNA, set 1: 0.273

S100A1 (GeneID 6271)
- BNIP3L mRNA, set 1: 0.0881
- NDRG1 mRNA, set 1: 0.687

F2 (GeneID 2147)
- BNIP3L mRNA, set 1: 0.075
- NDRG1 mRNA, set 1: 0.179

CD1B (GeneID 910)
- BNIP3L mRNA, set 1: 0.134
- NDRG1 mRNA, set 1: 1.1

PPP2CA (GeneID 5515)
- BNIP3L mRNA, set 1: 0.081
- NDRG1 mRNA, set 1: 0.132

HDHD2 (GeneID 84064)
- BNIP3L mRNA, set 1: 0.0564
- NDRG1 mRNA, set 1: 0.243

TTC1 (GeneID 7265)
- BNIP3L mRNA, set 1: 0.215
- NDRG1 mRNA, set 1: 1.3

DAZ3 (GeneID 57054)
- BNIP3L mRNA, set 1: 0.0844
- NDRG1 mRNA, set 1: 0.124

CATSPERG (GeneID 57828)
- BNIP3L mRNA, set 1: 0.155
- NDRG1 mRNA, set 1: 0.671

NFE2L1 (GeneID 4779)
- BNIP3L mRNA, set 1: 0.151
- NDRG1 mRNA, set 1: 0.322

Reformatted: 2 of the entries above
{"gene knocked down": "CD1B (GeneID 910)", "BNIP3L mRNA, set 1": 0.134, "NDRG1 mRNA, set 1": 1.1}
{"gene knocked down": "PPP2CA (GeneID 5515)", "BNIP3L mRNA, set 1": 0.081, "NDRG1 mRNA, set 1": 0.132}

Continued.
PCK2 (GeneID 5106)
- BNIP3L mRNA, set 1: 0.207
- NDRG1 mRNA, set 1: 0.189

CAMK1 (GeneID 8536)
- BNIP3L mRNA, set 1: 0.24
- NDRG1 mRNA, set 1: 0.36

GPR42 (GeneID 2866)
- BNIP3L mRNA, set 1: 0.453
- NDRG1 mRNA, set 1: 0.526

AGER (GeneID 177)
- BNIP3L mRNA, set 1: 0.119
- NDRG1 mRNA, set 1: 0.284

DBF4 (GeneID 10926)
- BNIP3L mRNA, set 1: 0.197
- NDRG1 mRNA, set 1: 0.183

BFSP2 (GeneID 8419)
- BNIP3L mRNA, set 1: 0.0822
- NDRG1 mRNA, set 1: 0.124

TNC (GeneID 3371)
- BNIP3L mRNA, set 1: 0.125
- NDRG1 mRNA, set 1: 0.0752

NR2E1 (GeneID 7101)
- BNIP3L mRNA, set 1: 0.0824
- NDRG1 mRNA, set 1: 0.0698

FAF2 (GeneID 23197)
- BNIP3L mRNA, set 1: 0.0874
- NDRG1 mRNA, set 1: 0.126

PKIG (GeneID 11142)
- BNIP3L mRNA, set 1: 0.0526
- NDRG1 mRNA, set 1: 0.106

DHX16 (GeneID 8449)
- BNIP3L mRNA, set 1: 0.064
- NDRG1 mRNA, set 1: 0.0957

SAFB (GeneID 6294)
- BNIP3L mRNA, set 1: 0.0842
- NDRG1 mRNA, set 1: 0.355

MAPK8IP1 (GeneID 9479)
- BNIP3L mRNA, set 1: 0.0732
- NDRG1 mRNA, set 1: 0.289
